Data reported in publication PMC10050012.
These are yes or no findings as the source states them, for the method shown. For some of these results: Binding can be weak; no strength is given. For some of these results: Binding seen in cells or lysates may run through a third protein.

Legend:
[1] = target: AKT/Protein Kinase B (human (endogenous in NB4)); experiment: condition: only cells treated with ATRA + NC9 (30 μM) for 5 days; co-IP; as a1, NB4 WT cells treated with ATRA + NC9 (30 μM, TG2 inhibitor) for 5 days
[2] = target: PI3K-p85 regulatory subunit (human (endogenous in NB4)); experiment: as above
[3] = target: AKT/Protein Kinase B (human (endogenous in NB4)); experiment: condition: only cells treated with ATRA + PP2 (20 μM) for 5 days; co-IP; as a1, NB4 WT cells treated with ATRA + PP2 (20 μM, c-SRC inhibitor) for 5 days
[4] = target: PI3K-p85 regulatory subunit (human (endogenous in NB4)); experiment: as above
[5] = target: AKT/Protein Kinase B (human (endogenous in NB4)); experiment: co-IP; immunoprecipitation from the plasma membrane fraction (and total cell lysate) of ATRA-treated NB4 WT cells with a polyclonal TG2 antibody and, reciprocally, with antibodies to mTOR, AKT, CD18, p85, PI3K/p110, PTEN and c-SRC; Western blot
[6] = target: PI3K-p85 regulatory subunit (human (endogenous in NB4)); experiment: as above
[7] = target: PI3K/p110 (human (endogenous in NB4)); experiment: as above
[8] = target: AKT/Protein Kinase B (human (endogenous in NB4)); experiment: far-Western, overlay or dot blot; modified far-western blot with disuccinimidyl suberate (DSS): bait proteins immunoprecipitated from plasma membrane, renatured and incubated with plasma membrane lysates; bound prey detected by a primary antibody; NB4 WT cells with ATRA for 5 days, also for 2 days, and NB4 WT CD18-/- cells; only the target purified
[9] = target: PI3K-p85 regulatory subunit (human (endogenous in NB4)); experiment: as above
[10] = target: PI3K/p110 (human (endogenous in NB4)); experiment: as above

binding [1]: no binding
binding [2]: no binding
binding [3]: no binding
binding [4]: no binding
binding [5]: binds
binding [6]: binds
binding [7]: binds
binding [8]: binds
binding [9]: binds
binding [10]: binds
B1: transglutaminase 2 (protein, UniProt P21980 1-687)
chain: MAEELVLERCDLELETNGRDHHTADLCREKLVVRRGQPFWLTLHFEGRNYEASVDSLTFSVVTGPAPSQEAGTKARFPLRDAVEEGDWTATVVDQQDCTLSLQLTTPANAPIGLYRLSLEASTGYQGSSFVLGHFILLFNAWCPADAVYLDSEEERQEYVLTQQGFIYQGSAKFIKNIPWNFGQFEDGILDICLILLDVNPKFLKNAGRDCSRRSSPVYVGRVVSGMVNCNDDQGVLLGRWDNNYGDGVSPMSWIGSVDILRRWKNHGCQRVKYGQCWVFAAVACTVLRCLGIPTRVVTNYNSAHDQNSNLLIEYFRNEFGEIQGDKSEMIWNFHCWVESWMTRPDLQPGYEGWQALDPTPQEKSEGTYCCGPVPVRAIKEGDLSTKYDAPFVFAEVNADVVDWIQQDDGSVHKSINRSLIVGLKISTKSVGRDEREDITHTYKYPEGSSEEREAFTRANHLNKLAEKEETGMAMRIRVGQSMNMGSDFDVFAHITNNTAEEYVCRLLLCARTVSYNGILGPECGTKYLLNLNLEPFSEKSVPLCILYEKYRDCLTESNLIKVRALLVEPVINSYLLAERDLYLENPEIKIRILGEPKQKRKLVAEVSLQNPLPVALEGCTFTVEGAGLTEEQKTVEIPDPVEAGEEVKVRMDLLPLHMGLHKLVVNFESDKLKAVKGFRNVIIGPA
